In patent US20150253341A1:
These are yes or no findings as the source states them, for the method shown. For some assays here: In cells and extracts the contact can be indirect. Some results given as binding are weak or reduced against the parent protein; the word gives no strength.

Chains of the proteins cited; added tags and fusions are not shown. Lines headed by an entry give the natural chain unless they say otherwise; changes in a name come on top. A line that says so, or that is headed by a name, gives the form on record, which may keep a tag or linker.
UniProt P10636: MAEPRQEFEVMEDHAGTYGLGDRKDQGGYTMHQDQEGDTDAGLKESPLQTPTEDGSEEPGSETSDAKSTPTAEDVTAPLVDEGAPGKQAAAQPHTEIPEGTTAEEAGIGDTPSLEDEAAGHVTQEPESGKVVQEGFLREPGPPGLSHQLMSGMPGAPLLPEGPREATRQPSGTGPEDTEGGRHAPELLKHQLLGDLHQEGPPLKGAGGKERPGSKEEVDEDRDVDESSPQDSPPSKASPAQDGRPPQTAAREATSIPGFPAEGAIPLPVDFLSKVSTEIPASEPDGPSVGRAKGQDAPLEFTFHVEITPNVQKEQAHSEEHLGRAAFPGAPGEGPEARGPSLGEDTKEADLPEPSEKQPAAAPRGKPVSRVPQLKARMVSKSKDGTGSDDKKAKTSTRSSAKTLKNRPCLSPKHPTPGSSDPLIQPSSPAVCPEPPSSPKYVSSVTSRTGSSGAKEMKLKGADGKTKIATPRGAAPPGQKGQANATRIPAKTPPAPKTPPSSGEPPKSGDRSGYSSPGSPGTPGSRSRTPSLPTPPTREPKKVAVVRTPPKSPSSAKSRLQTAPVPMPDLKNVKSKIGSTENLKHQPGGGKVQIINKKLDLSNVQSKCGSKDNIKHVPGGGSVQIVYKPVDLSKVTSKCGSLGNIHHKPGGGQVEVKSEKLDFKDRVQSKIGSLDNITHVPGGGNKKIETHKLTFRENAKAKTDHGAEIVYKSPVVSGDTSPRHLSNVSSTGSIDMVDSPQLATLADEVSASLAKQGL
recombinant human Tau isoform 3 (383 amino acids) (P10636, form named): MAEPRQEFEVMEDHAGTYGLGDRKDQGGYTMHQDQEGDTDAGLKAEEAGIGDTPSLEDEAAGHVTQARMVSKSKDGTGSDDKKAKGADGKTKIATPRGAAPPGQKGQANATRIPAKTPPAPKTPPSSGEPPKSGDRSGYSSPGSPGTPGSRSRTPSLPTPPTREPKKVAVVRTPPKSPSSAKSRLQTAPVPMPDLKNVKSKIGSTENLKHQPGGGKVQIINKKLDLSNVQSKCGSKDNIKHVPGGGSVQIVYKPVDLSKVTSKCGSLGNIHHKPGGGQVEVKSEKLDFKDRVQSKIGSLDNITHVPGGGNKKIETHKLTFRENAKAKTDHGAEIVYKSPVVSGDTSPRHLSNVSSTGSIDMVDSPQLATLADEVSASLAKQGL
recombinant human Tau isoform 4 (352 amino acids) (P10636, form named): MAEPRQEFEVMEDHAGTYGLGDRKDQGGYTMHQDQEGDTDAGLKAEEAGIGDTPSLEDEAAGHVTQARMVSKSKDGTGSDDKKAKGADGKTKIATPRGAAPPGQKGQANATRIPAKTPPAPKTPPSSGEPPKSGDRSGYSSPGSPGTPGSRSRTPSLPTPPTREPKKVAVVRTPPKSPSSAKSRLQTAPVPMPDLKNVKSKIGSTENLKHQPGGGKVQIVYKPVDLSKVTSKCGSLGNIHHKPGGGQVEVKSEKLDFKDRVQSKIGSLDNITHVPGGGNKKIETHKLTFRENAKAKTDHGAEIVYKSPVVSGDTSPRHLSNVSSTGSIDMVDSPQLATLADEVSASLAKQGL
full length 13C-15N Arg/Lys labeled Tau (412AA) internal standard protein (P10636, form named): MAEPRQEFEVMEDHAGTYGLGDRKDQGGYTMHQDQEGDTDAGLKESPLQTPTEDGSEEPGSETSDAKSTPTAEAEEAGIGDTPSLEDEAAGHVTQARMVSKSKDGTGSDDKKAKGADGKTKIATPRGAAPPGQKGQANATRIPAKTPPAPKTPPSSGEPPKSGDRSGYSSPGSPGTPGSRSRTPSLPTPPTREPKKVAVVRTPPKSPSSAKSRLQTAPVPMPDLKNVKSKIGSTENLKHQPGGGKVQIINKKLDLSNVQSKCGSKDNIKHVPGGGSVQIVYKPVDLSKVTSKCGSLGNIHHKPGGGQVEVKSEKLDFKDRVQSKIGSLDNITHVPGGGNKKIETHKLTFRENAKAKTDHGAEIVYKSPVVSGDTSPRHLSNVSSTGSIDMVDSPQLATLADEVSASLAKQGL
recombinant human Tau isoform 7 (381 amino acids) (P10636, form named): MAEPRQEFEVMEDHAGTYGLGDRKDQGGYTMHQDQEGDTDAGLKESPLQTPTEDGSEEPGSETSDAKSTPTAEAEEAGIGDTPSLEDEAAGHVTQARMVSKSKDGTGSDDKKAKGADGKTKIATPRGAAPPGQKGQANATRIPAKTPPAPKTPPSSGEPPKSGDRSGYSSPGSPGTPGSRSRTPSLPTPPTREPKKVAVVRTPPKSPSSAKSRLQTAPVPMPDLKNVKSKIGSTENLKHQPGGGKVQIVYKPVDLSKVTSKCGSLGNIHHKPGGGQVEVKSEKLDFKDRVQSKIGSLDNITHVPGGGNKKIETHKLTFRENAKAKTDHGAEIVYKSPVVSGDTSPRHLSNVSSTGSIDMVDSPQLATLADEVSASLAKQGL
recombinant human Tau isoform 8 (410 amino acids) (P10636, form named): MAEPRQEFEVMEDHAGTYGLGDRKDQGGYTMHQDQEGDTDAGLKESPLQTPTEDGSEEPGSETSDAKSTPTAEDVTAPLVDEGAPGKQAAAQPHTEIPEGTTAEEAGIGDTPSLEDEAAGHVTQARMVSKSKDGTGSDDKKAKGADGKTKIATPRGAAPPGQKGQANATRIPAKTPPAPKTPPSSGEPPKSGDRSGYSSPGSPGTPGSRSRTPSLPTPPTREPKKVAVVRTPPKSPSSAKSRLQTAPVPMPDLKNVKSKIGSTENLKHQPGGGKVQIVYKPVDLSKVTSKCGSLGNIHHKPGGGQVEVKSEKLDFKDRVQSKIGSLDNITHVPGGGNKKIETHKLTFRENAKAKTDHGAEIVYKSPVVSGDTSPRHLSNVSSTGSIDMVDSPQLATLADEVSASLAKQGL

What was measured:
[1] = target: T1, Tau peptide TREPK (Tau amino acids 220-224) (human); assay: Luminex bead peptide epitope mapping
T1 sequence (peptide): TREPK

[2] = target: recombinant human Tau isoform 2 (441 amino acids) (human) (UniProt P10636); assay: immunoaffinity purification on 13A6 beads, LC-MS/MS
[3] = target: recombinant human Tau isoform 3 (383 amino acids) (human) (UniProt P10636); assay: as above
[4] = target: recombinant human Tau isoform 4 (352 amino acids) (human) (UniProt P10636); assay: as above
[5] = target: recombinant human Tau isoform 5 (412 amino acids) (human) (UniProt P10636); assay: as above
[6] = target: recombinant human Tau isoform 7 (381 amino acids) (human) (UniProt P10636); assay: as above
[7] = target: recombinant human Tau isoform 8 (410 amino acids) (human) (UniProt P10636); assay: as above
[8] = target: full length 13C-15N Arg/Lys labeled Tau (412AA) internal standard protein (human) (UniProt P10636); assay: light/heavy Tau ratio with or without immunoaffinity enrichment on anti-Tau mAb beads, LC-MS/MS (n=4)

binding [1]: binds
binding [2]: binds
binding [3]: binds
binding [4]: binds
binding [5]: binds
binding [6]: binds
binding [7]: binds
binding [8]: binds
B1: mouse monoclonal anti-Tau antibody clone 13A6 (antibody, V domains shown)
VH: EVQLQQSGAELVRPGASVKLPCTASGFNIKDDYMNWVMQRPERGLEWIGWIDPENGDTAYASKFQGKATMTADTSSNTAYLQLSSLTSEDTAVYYCTSGGRFDYWGQGTSLTVSS
VL: DVLMTQTPLSLPVSLGDQASISCRSSQSIVHSNGSTYLEWYLQKPGQSPKLLIYKVSNRFSGVPDRFSGSGSGTDFTLKINRVEAEDLGVYYCFQGSHVPWTFGGGTKLEIK
